The text below walks through data of PubChem BioAssay AID1508600 (Functional Genomics Laboratory (NCATS/FGL), 2020).

In all, about 53,000 sequences went through this assay and about 3,700 (7%) were called active.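 How the source made its calls: active means gene knockdowns whose robust z-score for IL-1 alpha signal is at least 2 or at most -2, so actives lie on both sides; inactive means the rest.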 This is one part of the list.

This test is described as follows: Components of the Cytosolic LPS Sensing Pathway: Gene Identification via Genome-wide siRNA Screen.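 Further: robust z of the log signal after scaling to non-targeting control siRNA wells of the plate.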 The note with it: RAW264.7 macrophages, IL-1a HTRF, actives lie on both sides, screened at 100 nM (by protocol), cells primed 5 h with Pam3CSK4 first. The method in brief: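 Cells (RAW264.7, 1×10^4 per well) were transfected with siRNA at 100 nM and cultured 48h at 37 degrees C. Pam3CSK4 was added for 5 hours; LipidA transfection followed for 24 hour. IL-1a was then measured by HTRF.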
For orientation: In TR-FRET formats the signal depends on donor and acceptor labels being close together.
GGAAAAUGAUGGAGAGGAATT against Lysmd1: the z-score is inactive: -0.289.
On to GCAGCUCCAAAUCCUGUUCTT against Asb16, for which the z-score was inactive: -0.824.
To GCCUUUCCUAGACUAUUACTT against Tor1a belongs inactive: 0.964; to GCUCAACAAAGCCUGUUCGTT against Zp3, active: 2.35; to GCGAUUAUUUCGCUUUGGATT against Pcdha12, inactive: -0.502.
For UAUUCUAUCCGAACACCUUTT against Gm4884, the z-score was active: 2.19.
Turning to GGUUAUGAAUCUUUUCCCATT against Cyb5b, the z-score is inactive: -0.608.
Regarding “GCUUUGAGACCUAAUGAUGTT against 1810024B03Rik”, the z-score is inactive: -0.469.
For GCUUUAGAAUCCAAUACAATT against Zhx1, the z-score is inactive: 0.466.
As for GGCCAAACGGAAAUUCAGCTT against Rax, the z-score was inactive: 0.53.
Consider GCUGAUCAAACAGAUUAUCTT against Fbxl3, for which the z-score was inactive: 0.191.
As for CCUAUAGCCUAUGAGAGAGTT against Dcaf17, the z-score was inactive: -0.306.
For the sequence GCCAGAUCUCAAGAGGAUCTT against Chn2, the z-score is inactive: 0.699.
Regarding GGACCACUUGUAGUAUUUGTT against Map7d1, the z-score is inactive: 0.593.
On to GGAGAAAGAUGUUUACCGATT against Hyal2, for which the z-score was inactive: -0.533.
On to GGAAAUUUGCUCAUUCUAATT against Olfr1204, for which the z-score was inactive: 0.319.
On to GGUGAGAAAAGUGCAAGGCTT against Rps6kb2, for which the z-score was inactive: 0.145.
On to GCUGUGUUCAUCCAAAUACTT against Orc5, for which the z-score is inactive: 0.112.
The same measure for GCCUAUGCCCUGCAUAAACTT against Hdac8: inactive: -0.484; for GCAAUAACAGAUCUCGUUUTT against B3galt5: inactive: 1.03.
Turning to GGAUUCAGGAACACGGAGATT against D17H6S53E, the z-score is active: 2.29.
For GCUUCGACGGUGUAUGGAATT against Cav3, the z-score was inactive: 0.31.
As for GGAGUUAAAGUCACUGUUUTT against Mapkap1, the z-score is inactive: -0.107.
Turning to GCUGUUUUAGUAGAGGUAATT against Tsfm, the z-score was inactive: -0.708.
For GGCUUUCUAAGAGACUAUUTT against Wnt7a, the z-score was inactive: 0.567.
The same measure for GGCUCUCACAGAUCCUAAATT against Abcd3: inactive: -1.5.
To GGAAGAUUUGGAAAAUGGATT against Dph3 belongs active: -2.19; to GGAACCUGUAAAAGCCUCUTT against Il1f6, inactive: 1.03; to CCCUUUUGGAAACACUUUUTT against Ehd2, inactive: -0.464.
The same measure for GGCCAGGAAAAAAUCUGCATT against Neu1: inactive: -0.293; for CCAAGAAUCACUGUGUUUATT against Mcf2l: inactive: -0.182; for GGGACAGAUACUAAACUCUTT against Wfdc2: active: 3.49.
Turning to CCCAUCAUAAGGCAUGUAUTT against Olfr748, the z-score was inactive: 0.126.
For GCAGUUCAAGCAACGACGCTT against Pou3f1, the z-score was inactive: -0.257.
Turning to UCUCUCAUGAACUUCCACATT against Olfr1321, the z-score was inactive: 1.1.
The same measure for GCUGGCACAAGGCAAAACCTT against Drd1: inactive: -0.639.
For CCAUGAAUAGCAUCUUUGCTT against Adamtsl2, the z-score was inactive: -0.25.
For the sequence GGGCUCUGAGAAAAGACAATT against Spertl, the z-score was inactive: 1.86.
Consider CCAAUGGGCAAUGGAAUGATT against Sftpd, for which the z-score is inactive: 1.03.
For CCAAGGGUUGCUUCGAGCATT against Upk1a, the z-score is inactive: -0.489.
CGUAGAAACAGUGCAGCAGTT against Ankrd54: the z-score was inactive: 0.456.
Take CCGACAAACGCAAGGUGAUTT against Rtl8c: the z-score was inactive: -0.382.
Take GGGAAACAAACAGAAGAACTT against Cfap65: the z-score was inactive: -1.2.
In the case of GCUAUGUGUGGAACACCAUTT against Pus7, the z-score is inactive: 0.238.
The same measure for GGAAGAAGCGAAGGGCACUTT against Ndufb7: inactive: 0.353; for GCUCAAAACUCAAACUAGUTT against Zfp956: inactive: -0.475.
Consider GGUCUUUCUAUACAUCCUATT against Qsox1, for which the z-score is inactive: -1.43.
Take GGCCAUACUAUCUAUGCAATT against Ablim1: the z-score is inactive: -0.446.
As for GGCAUGAACUCAACAGAUUTT against Tnfrsf21, the z-score was inactive: 0.6.
As for GGACAAGUUUUCCUUUUCUTT against Phf2, the z-score was inactive: 1.21.
The same measure for CCUUAUCAGCCAGGGUUGGTT against Asb9: inactive: 1.3; for CCUGGGUUCUUUACCAUAATT against Naa35: inactive: -0.0128.
Turning to GGGCUAAUGAGAUAGGUUUTT against Slc19a2, the z-score is active: 2.18.
With CCUUUCUUGUGUUUACAGGTT against P2ry6, the z-score is inactive: -0.347.
In the case of GGUCAGUCAGAACAUGCUATT against Xrcc2, the z-score was inactive: 1.4.
For GGAAAUGGUGAAUAUGCGUTT against Rnf146, the z-score is inactive: -0.265.
GGAUUUUUGAUCUACCUAUTT against Slc16a7: the z-score was inactive: -0.472.
On to GGCUCAGGUGCCAAUUGCATT against Mfng, for which the z-score was inactive: 1.25.
As for “GGUUCCUUUAACUUUGGUUTT against A730089K16Rik”, the z-score is active: 2.18.
As to GGAAGACGGCAAUCAACCATT against Cyp2c37, the z-score is inactive: -0.368.
Consider CCAGCAAUAGUUCAGCAGATT against Ccdc82, for which the z-score is active: -2.72.
The same measure for “GCCUUACACUGUAGUCAGGTT against C130023O10Rik”: inactive: 0.796.
Consider GGAGAUGAGGAAGCUCUUCTT against Usp4, for which the z-score is inactive: -0.747.
Consider GGAUUGUGUUAGAACUUACTT against Blk, for which the z-score was inactive: -1.1.
Regarding CCCUAAUAGUGAAUACAUGTT against Icos, the z-score was inactive: 0.215.
To CCUACGGACUCAGGAAAUATT against Tle6 belongs inactive: -1.01; to GGAACCUCUCCUGAUCACCTT against Ces4a, inactive: 1.07; to CGAACACUUUAACAUUUUGTT against BC053393, inactive: 0.239.
